Among the data in PubChem BioAssay AID200 (DTP/NCI, 2004) are survivor count and T/C values, retold here.

The list is a part of this screen's results and no random one: it is rich in T/C values a quarter to a half above the control, in often repeated tests (any T/C) and in doses without a T/C. Other doses and runs of a compound stand elsewhere. T/C gives the treated animals as a percentage of the vehicle group. Some doses have a count of surviving animals in place of a T/C: the source holds a T/C of zero for them, seemingly a mark for toxic or unscored doses. Some survivor counts are full or nearly so, which does not show that the dose was tolerated: the source hardly ever lists a survival T/C far under the control, and the zero likely stands for such cases as well. Counts of survivors are from the toxicity check (mostly the fifth day) where no day follows; animals may have died later. Schedules are NCI's codes, taken here to give the interval after Q, in days (D) or hours (H), and the number of doses after X. Some entries were tested several times; their values stand side by side, smallest first. Where survival is the endpoint, this PubChem deposit counts one and a half times the control or more as active, and values a quarter to a half above the control carry no call in these data; other NCI protocols may use other cut-offs. Some T/C values carry the count of animals alive at the toxicity check (mostly the fifth day); without a count, all were alive then. Brackets with × say how often a value occurs here.

The test relates to B6C3F1 mice, B16 melanoma ip, median survival T/C. The test can be described thus: NCI In Vivo Anticancer Drug Screen. Data for tumor model B16 Melanoma (intraperitoneal) in B6C3F1 mice. Particulars: T/C endpoint: median survival time, schedule: Q01DX009 (ip), higher T/C = longer survival. The protocol:
The antitumor activity of compounds was measured in mice bearing transplantable tumors. Survival or tumor size were measured and the results are expressed as the measurement made in the treated group (T) divided by the measurement made in the vehicle treated control group (C). The tumor model used in this assay is B16 Melanoma (intraperitoneal) in B6C3F1 mice

Where [1] appears, read: dose: 50.0 mg/kg/injection, vehicle: saline.
Where [2] appears, read: dose: 100.0 mg/kg/injection, vehicle: saline.
Where [3] appears, read: dose: 12.0 mg/kg/injection, vehicle: saline with Tween-80.
Setting [4] is: dose: 25.0 mg/kg/injection, vehicle: saline with Tween-80.
The mark [5] stands for this setting: dose: 50.0 mg/kg/injection, vehicle: saline with Tween-80.
Setting [6] is: dose: 100.0 mg/kg/injection, vehicle: saline with Tween-80.
Setting [7] is: dose: 50.0 mg/kg/injection, vehicle: Klucel (hydroxypropylcellulose) (HPC).
Setting [8] is: dose: 200.0 mg/kg/injection, vehicle: Klucel (hydroxypropylcellulose) (HPC).
Where [9] appears, read: dose: 400.0 mg/kg/injection, vehicle: saline.
Setting [10] is: dose: 32.0 mg/kg/injection, vehicle: saline.
Setting [11] is: dose: 200.0 mg/kg/injection, vehicle: saline with Tween-80.

As for `CCN=C=NCCCN(C)C`, the survivor count is 5 of 10 (dose: 25.0 mg/kg/injection, vehicle: saline); 4 of 10 under setting [1]; 0 of 10 under setting [2]; 0 of 10 (dose: 200.0 mg/kg/injection, vehicle: saline).
Regarding `Cn1c(-c2ccc(/C=N\N3CCN(/N=C/c4ccc(-c5c[n+]6ccsc6n5C)cc4)CC3)cc2)c[n+]2ccsc12`, the survivor count under setting [3] is on record as 0 of 10.
As to `COc1ccc(S(=O)(=O)N=N/C=C2\C=CC=CN2O)cc1OC`, the T/C reads like this: under setting [3], 130 % of control; under setting [4], 127 % of control; under setting [5], 147 % of control; under setting [6], 140 % of control.
Consider `CN1CCCN(C(c2ccccc2)c2ccc(Br)cc2)CC1` (configuration not stated), for which, where the note is “dose: 72.0 mg/kg/injection, vehicle: saline”, the survivor count is reported as 10 of 10.
`C=C1C(=O)OC2/C=C(\C)CC(O)/C=C(/CO)CC(OC(=O)/C(C)=C/C)C12` (configuration not stated): the T/C (dose: 30.0 mg/kg/injection, vehicle: saline + alcohol) was 140 % of control. For the same molecule, the survivor count is, setting by setting: (dose: 120.0 mg/kg/injection, vehicle: saline with Tween-80) 10 of 10; (dose: 120.0 mg/kg/injection, vehicle: saline) 4 of 10.
As to `Nc1ncnc2c1nnn2C1OC(CO)C(O)C1O` (configuration not stated), the T/C is 127 % of control [9 of 10 alive] (dose: 12.5 mg/kg/injection, vehicle: Klucel (hydroxypropylcellulose) (HPC)) and 129 % of control (dose: 24.0 mg/kg/injection, vehicle: Klucel (hydroxypropylcellulose) (HPC)). Further, the survivor count was 10 of 10 (dose: 48.0 mg/kg/injection, vehicle: Klucel (hydroxypropylcellulose) (HPC)); 9 of 10 under setting [7]; 8 of 10 (dose: 100.0 mg/kg/injection, vehicle: Klucel (hydroxypropylcellulose) (HPC)); 0 of 10 under setting [8].
Regarding `CC[C@](O)(C(=O)O)c1cc2n(c(=O)c1CO)Cc1cc3ccccc3nc1-2`, the survivor count (dose: 6.0 mg/kg/injection, vehicle: water) was 10 of 10; the survivor count (dose: 12.0 mg/kg/injection, vehicle: water) is 10 of 10; the survivor count (dose: 24.0 mg/kg/injection, vehicle: water) is on record as 10 of 10.
As for `CC(CNC(=O)CCOS(C)(=O)=O)NC(=O)CCOS(C)(=O)=O` (configuration not stated), the T/C under setting [1] was 132 % of control and the T/C under setting [2] is 132 % of control [7 of 9 alive]. Moreover, under setting [9], the survivor count was 10 of 10 and 9 of 9.
Turning to `O=c1ncccn1[C@@H]1O[C@H](CO)[C@H](O)C1O` (some centres not stated), the T/C is 128 % of control under setting [2]; 127 % of control under setting [9]; 138 % of control (dose: 800.0 mg/kg/injection, vehicle: saline).
For the molecule `CC1=C(C)C(=O)O[C@@H]([C@](C)(O)[C@]2(O)CC[C@@]3(O)[C@@H]4C[C@H]5O[C@]56[C@@H](O)C=CC(=O)[C@]6(C)[C@H]4CC[C@]23C)C1`, the T/C was 146 % of control (dose: 2.0 mg/kg/injection, vehicle: saline + alcohol); 126 % of control (dose: 2.0 mg/kg/injection, vehicle: saline); 130 % of control (dose: 2.0 mg/kg/injection, vehicle: suspension in saline); 133 and 139 % of control (dose: 4.0 mg/kg/injection, vehicle: saline); 142 % of control (dose: 4.0 mg/kg/injection, vehicle: suspension in saline); 140 % of control (dose: 8.0 mg/kg/injection, vehicle: saline + alcohol). The T/C is 134 and 147 % of control (dose: 8.0 mg/kg/injection, vehicle: saline); 143 % of control (dose: 8.0 mg/kg/injection, vehicle: suspension in saline); 134 % of control (dose: 16.0 mg/kg/injection, vehicle: saline + alcohol); 132 % of control under setting [10]. Moreover, the survivor count (dose: 32.0 mg/kg/injection, vehicle: saline + alcohol) is on record as 3 of 10; the survivor count under setting [10] is 9 of 10; the survivor count (dose: 32.0 mg/kg/injection, vehicle: suspension in saline) was 9 of 10; the survivor count (dose: 64.0 mg/kg/injection, vehicle: suspension in saline) is 0 of 10.
On to `CN(C)c1nc(N(C)C)nc(N(C)C)n1`, for which the T/C by setting is: under setting [4], 96 (2×), 97, 99, 101, 102, 115 % of control; under setting [5], 100, 101, 102 [9 of 10 alive], 104 (2×), 108, 111 % of control; under setting [6], 91 [9 of 10 alive], 101, 103 [9 of 10 alive], 104, 105, 108 [9 of 10 alive], 125 % of control; under setting [11], 86 % of control [9 of 10 alive]. Besides, the survivor count by setting is: under setting [11], 8 of 10, 9 of 10, 10 of 10; (dose: 400.0 mg/kg/injection, vehicle: saline with Tween-80) 1 of 10, 2 of 10, 3 of 10, 4 of 10, 7 of 10.
As for `COc1ccc2c(c1O)-c1cccc3c1[C@@H](C2)N(CCCl)CC3`, the survivor count by setting is: (dose: 16.0 mg/kg/injection, vehicle: Klucel (hydroxypropylcellulose) (HPC)) 0 of 10 and 4 of 10; (dose: 32.0 mg/kg/injection, vehicle: Klucel (hydroxypropylcellulose) (HPC)) 0 of 10 and 1 of 10.
Take `CCC1=C[C@H]2CN(CCc3c([nH]c4ccccc34)[C@@](OC(C)=O)(c3cc4c(cc3OC)N(C)[C@H]3[C@@](O)(C(=O)NCCSc5ccccc5)[C@H](O)[C@]5(CC)C=CCN6CC[C@]43[C@@H]65)C2)C1`: the T/C runs as follows: (dose: 0.5 mg/kg/injection, vehicle: water) 132 % of control; (dose: 4.0 mg/kg/injection, vehicle: water) 145 % of control.
Turning to `CC(C)CC(NC(=O)OCC1c2ccccc2-c2ccccc21)C(=O)O` (configuration not stated), the T/C under setting [7] was 135 % of control. Further, the survivor count runs as follows: under setting [8], 9 of 10; (dose: 400.0 mg/kg/injection, vehicle: Klucel (hydroxypropylcellulose) (HPC)) 0 of 10.
Take `Cc1ccc([NH-])c([NH-])c1.[Cl][Pt+2][Cl]`: the T/C is 132 % of control (dose: 1.25 mg/kg/injection, vehicle: saline with Tween-80) and 137 % of control (dose: 2.5 mg/kg/injection, vehicle: saline with Tween-80).
